Measurements reported in PubChem BioAssay AID504784 (Drosophila RNAi Screening Center, 2011)
In all, the deposit lists about 17,000 reagents; below is a random part of those that have a named target and a result. 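Each column is one replicate's B-score; the combined score over replicates was not deposited, so single values may mislead.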 Reagents against one gene are numbered here. A plus sign joins genes that one reagent is predicted to hit.

Assay: 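Search for regulators of lipid droplet storage in oleate-fed fly cells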 (primary screen)
System: Drosophila Kc167 embryonic cells
Reagent: long dsRNA against Drosophila genes, about 250 ng dsRNA per well
Time to read-out: 4 days
Treatment: cells fed 400 µM oleic acid bound to BSA
Detection: 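Cells imaged and segmented; ratio of lipid droplet area to nuclear area, log-transformed, then normalised as a B-score over the screen; higher means more stored lipid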
Scale: droplet/nuclear area B-score: higher = more stored lipid (overstorage)

Target gene	reagent	droplet/nuclear area B-score, replicate 1	droplet/nuclear area B-score, replicate 2	droplet/nuclear area B-score, replicate 3
CG11380	1	0.753	0.907	
CG11380	2	-1.1	0.874	
Sec71	1	-2.16	-0.147	
Cpr76Ba	1	1.19	0.346	
CG10413	1	1.22	1.22	
mats	1	1.64	-0.0841	
mats	2	-0.862	0.832	
Rpn11	1	-0.374	1.84	
Rab7	1	1.51	-0.743	
CG6766	1	0.256	1.97	-0.301
CG13689	1	0.601	-0.79	
CG14569	1	-0.29	-0.43	
pic	1	-0.847	0.494	
Dlish	1	0.394	-2.34	
PGRP-LD + Cralbp + Pmi	1	-0.472	0.759	
Jon44E	1	-0.861	0.36	
stan	1	-0.875	-1.09	
stan	2	-0.359	-1.09	
Sap47	1	2.46	-3.87	
dop	1	1.73	0.735	0.0281
a5	1	1.31	1.89	
kirre	1	-0.533	-0.0347	
XRCC1	1	-1.69	1.26	-0.83
wwk	1	3.35	-0.498	
CG6931	1	0.191	-0.839	
CG31205	1	1.45	-0.0188	
Golgin245	1	0.0822	0.0195	
Golgin245	2	-0.0761	1.62	
magu	1	1.21	-0.487	
sll	1	-0.227	0.0336	
Yp3	1	0.914	1.52	
CG42445	1	-1.38	-0.0119	
Bka	1	0.469	0.103	
CG5854	1	-0.56	-0.000428	
CG5196	1	0.951	0.705	
CG7255	1	0.585	0.456	0.901
Ilp1	1	0.516	1.01	
Pss	1	3.06	2.21	
Ant2	1	0.384	-1.42	0.0679
CG2187	1	-1.02	0.411	
Ir52c	1	-0.413	0.239	
CG42565	1	0.757	-0.638	
CG32447	1	-1.52	0.746	0.892
CG32447	2	0.244	-1.52	
RpS30	1	2.92	1.66	
Sema1a	1	-0.359	-0.391	
CG8320 + ATPCL	1	2.88	-2.17	
CG11370	1	-0.102	1.36	
CG14346	1	0.00563	-0.429	
asun	1	-0.0324	-4.24	
CG6262	1	1.97	0	
CG6262	2	-0.0319	2.68	
CG4025	1	-0.0419	0.96	
IscU	1	11.5	8.97	
sing	1		1.67	
Cyp301a1	1	0.126	-0.606	
Hecw	1	0.853	1.06	-0.115
Hecw	2	1.49	0.414	0.396
sut2	1	1.15	-1.32	
Ice2	1	-0.00947	4.33	
CG12170	1	2.28	8.92	-0.809
CG6765	1	0.26	0.094	
Arc1	1	-1.03	-0.0748	-0.31
mRpS29	1	0.0625	0.428	
CG13605	1	-0.526	-2.44	
synr	1	2.46	-0.199	
CG33116	1	-0.592	1.77	
ClC-c	1	-0.00166	-0.521	-0.758
Rheb	1	1.78	3.66	
ppk5	1	1.23	-0.714	
CG17917	1	1.53	0.936	
CG13540	1	-2.08	-3.65	
Ssl2	1	0.39	0.707	
Ssl2	2	-0.107	1.37	
CG32087	1	0.0582	1.76	
CG13856	1	0.449	0.205	
beta'COP	1	5.4	4.82	
TM9SF2	1	2	0.179	
Vap33	1	-0.309	2.03	
CG42245 + MEP-1	1	2.5	0.482	
CG42245 + MEP-1	2	-0.0203		
CG42245 + MEP-1	3	2.54	1.54	
CG6761	1	-0.0327	1.02	
CG4520	1	-0.256	-0.647	
ckd	1	-0.505	-0.165	
CG7290	1	0.604	0.629	
CG12279	1	0.999	-1.39	
betaCOP	1	4.67	4.58	
phyl	1	1.66	3.47	
Srx	1	-1.17	-1.7	
Cyp28d2	1	-1.63	0.00446	
CG32971	1	2.36	1.26	
CG16953	1	-0.269	-0.555	
UQCR-C2	1	4.4	3.63	
Cp15	1	0.442	0.236	
CG10151	1	-1.03	-0.787	
beta4GalNAcTA	1	0.129	0.251	
CG17298	1	-2.48	0.573	
Sps2	1	-0.099	-0.0326	
CG30089	1	-0.0585	1.25	0.531
CG30089	2	1.01	0.334	
CG30089	3	0.213	-0.854	
CG30089	4	0.485	0.00319	
CG30089	5	-3.41	-0.377	
CG9083	1	-1	0.119	
